Data source: PubChem BioAssay AID1159584 (Peter MacCallum Cancer Centre, 2016)
Assay: 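Genes whose loss is lethal only together with E-cadherin loss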 (primary screen). Cells: human MCF10A breast epithelial cells, parental and CDH1-null. Knock-down reagent: siRNA against human genes. Read-out: 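Cell viability by CellTiter-Glo ATP luminescence, each line scaled to the mean of mock wells across plates, then CDH1-null over parental ratio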. Direction: CDH1-null / parental viability ratio: higher = CDH1-null cells survive relatively better than parental.
The whole screen tested about 18,000 reagents; shown is a random part of them. Reagents against one gene are numbered here. Not all columns of the deposit are shown. Not given: the amount of reagent, the time to read-out.

CDH1-null / parental viability ratio, by gene and reagent
TOX3: #1 0.89
AIDA: #1 1
GTF3C2: #1 1.09
GPR174: #1 1.52
IZUMO4: #1 1.17
TP53TG5: #1 0.98
COA3: #1 0.77
UBE2L6: #1 1.28
C1orf87: #1 0.76
JTB: #1 1.17
ABCA1: #1 1.16
KIF15: #1 1.04
GPR157: #1 0.71
MAP3K21: #1 0.95
C6orf136: #1 0.98

3 entries from above in another layout.
GPR174 → CDH1-null / parental viability ratio = 1.52
IZUMO4 → CDH1-null / parental viability ratio = 1.17
TP53TG5 → CDH1-null / parental viability ratio = 0.98

Further results follow.
CDH1-null / parental viability ratio, by gene and reagent
KRTAP11-1: #1 0.79
KIR3DX1: #1 0.98
OR1L4: #1 0.76
DHDH: #1 1.18
OLAH: #1 0.94
CLIP2: #1 0.73
GLT8D1: #1 0.92
CSAG2: #1 1.11; #2 1.16
ADH1B: #1 1.02
TMEM143: #1 0.91
RESF1: #1 0.95
PDHB: #1 0.98
MAST4: #1 1.2
LANCL1: #1 0.77
C22orf42: #1 0.92
RPS2: #1 1
ME2: #1 0.94
OR5AC2: #1 1.1
GDF11: #1 1.12
SNX6: #1 1.32
PHF12: #1 0.94
CEBPG: #1 1.04
SLC25A52: #1 1.09
TBCA: #1 1.34
DAND5: #1 0.94
RPP25: #1 1.07
ZXDC: #1 1.13
KRT6B: #1 1.2
TBL3: #1 0.93
GPR39: #1 0.74
